At least one compound was matched to its structure with a doubt left.
Tested on: gram positive bacteria / Gram negative bacteria (Enterococcus faecalis, Staphylococcus aureus incl. methicillin resistant, Staphylococcus epidermidis …)
Assay: MIC antimicrobial assay (NCCLS microdilution broth method)
Format: cell-based
Details: MIC value range over the selected gram positive and gram negative test organisms; 35° C., 16-20 hours
Protocol: 2. MIC Antimicrobial Assay
The in vitro antimicrobial activity of the compounds was determined by the microdilution broth method following the test method from the National Committee for Laboratory Standards (NCCLS). This method is described in the NCCLS Document M7-A2, Vol.10, No. 8 "Methods for Dilution Antimicrobial Susceptibility Test for Bacteria that Grow Aerobically-Second Edition."
In this method two-fold serial dilutions of drug in cation supplemented Mueller-Hinton broth are added to wells in microdilution trays. The test organisms are prepared by adjusting the turbidity of actively growing broth cultures so that the final concentration of test organism after it is added to the wells is approximately 5×10^4 CFUs/well).
Following inoculation of the microdilution trays, the trays are incubated at 35° C. for 16-20 hours and then read. […] The amount of growth in the wells containing the test compound is compared with the amount of growth in the growth-control wells (no test compound) used in each tray. The following test organisms were utilized in the assay:
Enterococcus faecalis ATCC 29212
Enterococcus faecalis oc 3041
Enterococcus faecalis oc 2993
Methicillin resistant Staphylococcus aureus oc 2089
Methicillin resistant Staphylococcus aureus oc 667
Staphylococcus aureus ATCC 29213
Staphylococcus aureus ATCC 6538
Staphylococcus epidermidis oc 2603
Escherichia coli oc 2530 ss […]

N=C(N)NCCc1ccc(OCCC2c3ccccc3-c3ccccc32)cc1 [Compound 4, {2-[4-[2-(9-FLUORENYL)ETHOXY]PHENYL]ETHYL}GUANIDINE]
MIC(G+/G-): 6.2->50

Source: patent US5773469A, “Diaryl antimicrobial agents” (Ortho Pharmaceutical Corporation, priority 1996, dated 1998)
